This passage reports AC50 results from PubChem BioAssay AID493014 (National Center for Advancing Translational Sciences (NCATS), 2011).

Structures are written as SMILES. This is one part of the list. Further columns of the screen follow, without active or inactive calls. Most of these compounds were active or inconclusive in the main read-out, so they are no random draw. Potencies come from curve fits of mixed quality, noted in brackets.

This test in a line: qHTS Assay to Find Inhibitors of Chronic Active B-Cell Receptor Signaling. Conditions: ABC-DLBCL IkBa-CBG/CBR reporter, luminescence ratio (green luciferase fused to IkBa over red control in TMD8 lymphoma cells), 4 h. Put shortly: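 Concentration-response series (up to 46 uM) were applied to TMD8 dual-reporter cells for 4 h at 37C with doxycycline. Green/red ratio, after filter-overlap correction, defined %Activity; red signal alone was normalised to basal cells and zero luminescence.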
Background: Quantitative high-throughput screening tests each substance at several concentrations.

The mark [1] stands for this setting: measured here: CBR red luminescence, cell number.
Setting [2] is: measured here: IkBa-CBG green luminescence.

As for `O=S(=O)(Nc1ccc(S(=O)(=O)N2CCCC2)cc1)c1ccc(F)cc1`, the AC50 under setting [1] was 0.112 µM [falling, full curve, poor fit]. Take `C=C1CCC2[C@](C)(CO)[C@H](O)CC[C@@]2(C)[C@@H]1C/C=C1\C(=O)OC[C@H]1O` (stereo not given in full): under setting [1], the AC50 is 32.6 µM [falling, single point]. For the compound `Cn1nc(C(=O)NC2CCCN(Cc3ccccc3F)C2)c2ccccc2c1=O` (stereo not given), the AC50 by setting is: under setting [1], 12.6 µM [rising, partial curve]; under setting [2], 15.8 µM [falling, single point]. `Cc1cc(C)nc(Oc2ccc(Br)cc2Br)n1`: under setting [1], the AC50 was 31.6 µM [rising, partial curve, poor fit]. Same read-out and setting: the value for `CC(O)CN=c1cc(-c2ccccc2)oc2ccc(Cl)cc12` (stereo not given) was 0.355 µM [rising, full curve, poor fit]; that for `COc1ccc(CNC(=O)c2cc(-c3ccccc3O)n[nH]2)cc1` was 0.92 µM [falling, full curve]; that for `CCCCOc1ccc(C(=O)NNC(=O)C2C3CCC(C3)C2C(=O)O)cc1` (stereo not given) was 1.41 µM [falling, full curve]. Same read-out and setting: the value for `CC1CCCCN1C(=O)c1ccc(OC2CCN(S(=O)(=O)N(C)C)CC2)cc1` (stereo not given) was 12.6 µM [rising, partial curve]; that for `O=C(CN1CCC(Cc2ccccc2)CC1)Nc1ccc2c(c1)OCCO2` was 20.6 µM [falling, single point]; that for `CC1CCCN(c2ccc(C(=O)Nc3cccnc3)cc2[N+](=O)[O-])C1` (stereo not given) was 7.08 µM [rising, partial curve, poor fit].

For the compound `O=C(CSC1=NCCN1)Nc1ccccc1[N+](=O)[O-]`, the AC50 under setting [1] was 11.2 µM [falling, partial curve, poor fit]. Same read-out and setting: the value for `O=C(CCCN1C(=O)C(c2ccccc2)Oc2cccnc21)Nc1ccccc1Cl` (stereo not given) was 10 µM [falling, partial curve, poor fit]; that for `COCCCNC(=S)N1CCN(c2nc(-c3cccc(OC)c3)cs2)CC1` was 35.5 µM [falling, single point]; that for `O=C(Nc1c2c(nn1-c1ccc(F)cc1)CS(=O)(=O)C2)c1ccc(Br)o1` was 12.6 µM [falling, single point]. On the same count and under the same terms, for `CCOc1ccccc1/C=C(\C#N)C(=O)Nc1cccc(C(=O)O)c1` the value was 11.2 µM [falling, single point]. Turning to `COc1cccc(NC(=S)N2CCc3cc(OC)c(OC)cc3C2COc2ccc3c(C)cc(=O)oc3c2)c1` (stereo not given), the AC50 under setting [1] was 32.6 µM [rising, single point].

Take `Cc1nc(NC(=O)c2ccccc2)sc1C1(C)CC(c2ccccc2F)=NO1` (stereo not given): under setting [1], the AC50 is 35.5 µM [falling, single point].

`Fc1ccc(-n2cc(CNCCc3ccccn3)c(-c3ccccc3Cl)n2)cc1`: the AC50 under setting [1] is 11.2 µM [falling, partial curve, poor fit]. Same read-out and setting: the value for `CN(C)CCCN(C(=O)CCc1ccccc1)c1nc2ccc(F)cc2s1` was 16.4 µM [falling, partial curve, poor fit]. Still for that read-out and setting: for `O=C(NC(=S)Nc1ccc(-c2ccc(CO)o2)cc1)c1cccs1` the value was 35.5 µM [falling, single point]; for `Cc1cccc(Cn2c(CN3CCC(C(=O)NC(C)C)CC3)cc3ccccc32)c1`, 2.82 µM [falling, partial curve, poor fit]. Still for that read-out and setting: the value for `COC(=O)C(C(=O)OC)C(C)C(C(=O)OC)C(=O)OC` was 5.8 µM [rising, partial curve, poor fit]; that for `COc1ccccc1NC(=O)CSc1nnc(-c2ccoc2C)n1CCc1ccccc1` was 11.2 µM [falling, single point]; that for `C[C@@H]1CN([C@H](C)CO)C(=O)c2cccc(NC(=O)Nc3ccc(C(F)(F)F)cc3)c2O[C@H]1CN(C)S(=O)(=O)c1cccs1` was 29.1 µM [falling, single point]. As for `O=C(Nc1ccccc1Cl)c1ccc(-c2ccccn2)s1`, under setting [1], the AC50 is 17.8 µM [falling, partial curve, poor fit].

On to `O=C(/C=C/c1cccc2ccccc12)c1ccncc1`, for which the AC50 is 29.1 µM [rising, single point] under setting [1] and 29.1 µM [falling, single point] under setting [2]. For `Cc1ccccc1OCC(=O)NNC(=O)Nc1ccc(Cl)cc1`, the AC50 under setting [1] is 3.55 µM [rising, full curve, poor fit].

Take `O=C1C=C(c2cccc(O)c2)C[C@@H](c2ccc(F)cc2)C1`: the AC50 under setting [2] is 32.6 µM [rising, partial curve, poor fit]. With `Cc1cc(C)c2cc(CN(Cc3ccc4c(c3)OCO4)Cc3nnnn3Cc3ccco3)c(=O)[nH]c2c1`, the AC50 under setting [1] was 23.1 µM [falling, single point]. On the same count and under the same terms, the value for `O=C(CC1C(=O)NCCN1C(=O)Nc1ccccc1)Nc1ccc(F)cc1` (stereo not given) was 1.12 µM [falling, full curve]; that for `COc1ccccc1C(=O)N/C(=C/c1ccco1)C(=O)Nc1cccc(C(=O)O)c1` was 3.55 µM [falling, full curve]; that for `O=C(C1=C(O)C(=O)N(CCCN2CCOCC2)C1c1ccncc1)c1cc2ccccc2o1` (stereo not given) was 18.4 µM [falling, partial curve, poor fit]. The same measure, in the same setting: the value for `c1ccc2c(Cn3nnc4ccccc43)cccc2c1` was 4.11 µM [rising, full curve, poor fit]. The same measure, in the same setting: the value for `CCN(CC)S(=O)(=O)c1ccc(/C=C/C(=O)Nc2ccc(F)c(F)c2F)cc1` was 10.3 µM [falling, partial curve]; that for `COc1cc(/C=N/Nc2ccc([N+](=O)[O-])cc2S(=O)(=O)N2CCOCC2)cc(OC)c1OC` was 23.1 µM [rising, single point]; that for `CCCN1CCC(NC(=O)Nc2ccc(Br)cc2)CC1` was 12.6 µM [rising, partial curve]. With `O=C(CCSCc1ccccc1F)N1CCN(c2ccccn2)CC1`, the AC50 under setting [1] is 29.1 µM [rising, single point]. Take `CC[n+]1ccc(/C=C2\Sc3ccccc3N2CCCS(=O)(=O)[O-])c2ccccc21`: the AC50 under setting [1] was 35.5 µM [rising, partial curve, poor fit]. Take `O=C(Nc1ccc(Br)cc1)Nn1cnnc1`: under setting [1], the AC50 was 3.55 µM [rising, partial curve, poor fit]. As for `CN(C)CCOC(=O)C1(c2ccccc2)CCCC1`, the AC50 under setting [1] is 7.31 µM [rising, partial curve, poor fit]. On the same count and under the same terms, the value for `O=C(CSc1ccc(-c2ccccc2)nn1)Nc1ccc2c(c1)OCCO2` was 3.66 µM [rising, partial curve, poor fit]; that for `Cc1cccc(OCCNC(=O)c2cncc(Br)c2)c1` was 20.6 µM [rising, partial curve, poor fit]. The same measure, in the same setting: the value for `Cc1cc(=O)oc2cc(OC(C)C(=O)Nc3nccs3)ccc12` (stereo not given) was 9.2 µM [falling, partial curve]. Take `Cc1ccc(NN2C(=O)C=C(c3ccc(Cl)cc3)C2=O)cc1`: the AC50 is, setting by setting: under setting [1], 23.1 µM [rising, partial curve]; under setting [2], 18.4 µM [falling, single point]. Turning to `O=C(Nc1ccncc1)c1c(F)cccc1F`, the AC50 under setting [1] was 29.1 µM [falling, single point]. On the same count and under the same terms, for `COc1ccc(S(=O)(=O)CCC(=O)NCCc2ccc(C)cc2)cc1` the value was 0.259 µM [falling, full curve, poor fit]. Same read-out and setting: for `CSc1nc2ccc(NC(=O)c3ccc(F)c(F)c3)cc2s1` the value was 0.708 µM [rising, full curve]; for `CC(=O)Nc1ccc(N=c2cc([N+](=O)[O-])cc(Cl)n2O)cc1`, 1.41 µM [rising, full curve, poor fit].

`N#CC1=C(S)N(c2ccccc2)C(c2ccc(-c3cccc(Cl)c3)o2)NC1=O` (stereo not given): the AC50 under setting [2] was 16.4 µM [falling, partial curve, poor fit]. `COc1cccc(NC(=O)Cn2c(SCC(=O)N3CCOCC3)nc3ccccc32)c1`: under setting [1], the AC50 was 29.1 µM [rising, single point]. With `CCc1noc(C)c1C(=O)OCC(=O)Nc1ccccc1SC`, the AC50 under setting [1] is 7.31 µM [falling, partial curve, poor fit]. The same measure, in the same setting: the value for `CCCc1nnc(SCC(=O)Nc2ccc3c(c2)OCCO3)n1CCOC` was 3.16 µM [rising, single point]. The same measure, in the same setting: for `C[C@]12c3[nH]c4ccc(Cl)cc4c3CCN1C(=O)[C@@H](CC(=O)NCC13CC4CC(CC(C4)C1)C3)C[C@@H]2C(=O)N1CCCCC1` the value was 1.84 µM [rising, partial curve]. The same measure, in the same setting: for `Cc1ccc(S(=O)(=O)c2nc(S(C)(=O)=O)sc2N2CCC(C)CC2)cc1` the value was 4.47 µM [rising, partial curve, poor fit]; for `O=C(C1CC(=O)N(c2ccc(F)cc2)C1)N1CCCCC1` (stereo not given), 11.2 µM [rising, partial curve, poor fit].

Take `Cc1cccc(-c2nc(=S)c3c(n2Cc2ccco2)CCCC3)c1`: the AC50 under setting [1] was 16.4 µM [falling, single point]. Take `O=C(NNC(=O)[C@@H]1CCCC[C@@H]1C(=O)O)c1cccs1`: the AC50 under setting [1] was 9.2 µM [falling, partial curve, poor fit]. Regarding `Cc1cccc2sc(NC(=O)CNS(=O)(=O)c3ccc(Br)s3)nc12`, the AC50 was 8.91 µM [falling, partial curve, poor fit] under setting [1] and 11.2 µM [rising, partial curve, poor fit] under setting [2].

In the case of `CCCCC(=O)NC(=S)Nc1c(C)cc(Br)cc1C`, the AC50 under setting [1] was 0.731 µM [rising, full curve, poor fit]. The same measure, in the same setting: the value for `c1ccc(Nc2ccc3c4c(cccc24)CC3)cc1` was 13 µM [rising, partial curve]. Consider `CC(=O)Nc1ccc(C(=O)OCc2ccc(F)cc2Cl)cc1`, for which, under setting [1], the AC50 is 11.2 µM [rising, partial curve, poor fit].

By AC50 is commonly meant the midpoint of the concentration-response curve, whichever way the signal moves.
